Experimental data reported in patent US11129782B2, “Derivatives of PPD useful for coloring hair and skin” (National University of Singapore, priority 2017, dated 2021).

Experiments:
[1] = Hair dyeing of bleached hair, colour obtained
[2] = Quantification of compounds from extracted dyed hair samples using LCMS; settings: LC-MS
[3] = Colour intensity measurement of dyed hair (chromometer; L*a*b*, RGB index); settings: for ΔE / ΔH: vs natural hair
[4] = PPD/PPD derivative alone, no H2O2, no resorcinol
[5] = C: with coupling agent Resorcinol

Compound | Colour of dyed hair [1, 4] | Colour of dyed hair ([1]; with H2O2) | Colour of dyed hair ([1]; with resorcinol and H2O2) | RGB index B ([3]; A: derivative only) | RGB index G ([3]; A: derivative only) | RGB index R ([3]; A: derivative only) | L* ([3]; A: without any oxidant) | a* ([3]; A: without any oxidant) | b* ([3]; A: without any oxidant) | ΔE ([3]; A: without any oxidant) | ΔH ([3]; A: without any oxidant) | L* ([3]; B: with oxidant H2O2) | a* ([3]; B: with oxidant H2O2) | b* ([3]; B: with oxidant H2O2) | ΔE ([3]; B: with oxidant H2O2) | ΔH ([3]; B: with oxidant H2O2) | RGB index B ([3]; C: derivative with resorcinol) | RGB index G ([3]; C: derivative with resorcinol) | RGB index R ([3]; C: derivative with resorcinol) | L* [3, 5] | also measured
Nc1ccc(Nc2ccc(Nc3ccc(N)cc3)cc2)cc1 [PPD derivative 2, N^1,N^4-bis(4-aminophenyl)-1,4-benzenediamine] | Bluish purple | Grey | light Grey | 54 | 57 | 34 | 22 | 4 | 1 | 4.12 | 2 | 35 | 5 | 0 | 5.47 | 2 | 64 | 63 | 67 | 49 | Concentration in extracted hair sample ([2]; Day 1, + H2O2): 0.1975 mg; Concentration in extracted hair sample ([2]; Day 1, + resorcinol + H2O2): 0.09764 mg; Concentration in extracted hair sample ([2]; Day 1, compound only): 0.2473 mg; Concentration in extracted hair sample ([2]; Day 2, + H2O2): 0.1433 mg; Concentration in extracted hair sample ([2]; Day 2, + resorcinol + H2O2): 0.1228 mg; Concentration in extracted hair sample ([2]; Day 2, compound only): 0.2242 mg; Concentration in extracted hair sample ([2]; Day 7, + H2O2): 0.1752 mg; Concentration in extracted hair sample ([2]; Day 7, + resorcinol + H2O2): 0.1054 mg; Concentration in extracted hair sample ([2]; Day 7, compound only): 0.2323 mg; RGB index B ([3]; B: derivative with H2O2): 81; RGB index G ([3]; B: derivative with H2O2): 83; RGB index R ([3]; B: derivative with H2O2): 75; a* [3, 5]: 8; b* [3, 5]: 8; ΔE [3, 5]: 7.41; ΔH [3, 5]: 3.87
CCCCCCOc1cc(N)ccc1N [PPD derivative 4, 2-hexyloxy-1,4-diaminobenzene] | Magenta | Black | Dark magenta | 32 | 38 | 30 | 16 | 7 | 0 | 3.6 | 2.44 | – | – | – | – | – | 48 | 42 | 60 | 21 | a* [3, 5]: 10; b* [3, 5]: 3; ΔE [3, 5]: 4.89; ΔH [3, 5]: 3.46
Nc1ccc(N)cc1 [PPD, para-phenylenediamine, reference compound] | no colour | Black | Brown | 135 | 177 | 200 | 57 | 0 | 30 | 8.77 | 5.38 | 14 | 1 | 3 | 2.82 | 1.73 | 26 | 25 | 26 | 9 | Concentration in extracted hair sample ([2]; Day 1, + H2O2): 0.00086 mg; Concentration in extracted hair sample ([2]; Day 1, + resorcinol + H2O2): 0.001337 mg; Concentration in extracted hair sample ([2]; Day 1, compound only): 0.001517 mg; Concentration in extracted hair sample ([2]; Day 2, + H2O2): 0.00085 mg; Concentration in extracted hair sample ([2]; Day 2, + resorcinol + H2O2): 0.00142 mg; Concentration in extracted hair sample ([2]; Day 2, compound only): 0.001568 mg; Concentration in extracted hair sample ([2]; Day 7, + H2O2): 0.001138 mg; Concentration in extracted hair sample ([2]; Day 7, + resorcinol + H2O2): 0.001504 mg; Concentration in extracted hair sample ([2]; Day 7, compound only): 0.001264 mg; RGB index B ([3]; B: derivative with H2O2): 37; RGB index G ([3]; B: derivative with H2O2): 31; RGB index R ([3]; B: derivative with H2O2): 62; a* [3, 5]: 0; b* [3, 5]: 1; ΔE [3, 5]: 0; ΔH [3, 5]: 0
CCCCCCOC(=O)c1cc(Nc2ccc(N)cc2)ccc1N [PPD derivative 6, hexyl 2-amino-5-((4-aminophenyl)amino)benzoate] | Green | Dark Green | – | – | – | – | 45 | 3 | 1 | 6.2 | 1.7 | 9 | 6 | 1 | 2.4 | 2.4 | – | – | – | – | –
CCCCC(CC)COc1cc(N)ccc1N (centres unmarked) [PPD derivative 3, 2-((2-ethylhexyl)oxy)benzene-1,4-diamine] | Purple | Black | Black | 26 | 25 | 26 | 17 | 13 | 2 | 4.69 | 3.74 | – | – | – | – | – | 54 | 35 | 34 | 9 | a* [3, 5]: 6; b* [3, 5]: 1; ΔE [3, 5]: 2.44; ΔH [3, 5]: 2.44
Nc1ccc(Nc2ccc(N)cc2)cc1 [PPD derivative 1, 4,4′-Diaminodiphenylamine] | Black | Black | Dark Brown | 31 | 28 | 29 | 11 | 1 | 2 | 2 | 1.41 | 9 | 1 | 1 | 1 | 1 | 26 | 25 | 26 | 9 | Concentration in extracted hair sample ([2]; Day 1, + H2O2): 0.2188 mg; Concentration in extracted hair sample ([2]; Day 1, + resorcinol + H2O2): 0.1209 mg; Concentration in extracted hair sample ([2]; Day 1, compound only): 2.7319e-05 mg; Concentration in extracted hair sample ([2]; Day 2, + H2O2): 0.2183 mg; Concentration in extracted hair sample ([2]; Day 2, + resorcinol + H2O2): 0.1547 mg; Concentration in extracted hair sample ([2]; Day 2, compound only): 2.257e-05 mg; Concentration in extracted hair sample ([2]; Day 7, + H2O2): 0.2441 mg; Concentration in extracted hair sample ([2]; Day 7, + resorcinol + H2O2): 0.1227 mg; Concentration in extracted hair sample ([2]; Day 7, compound only): 2.461e-05 mg; RGB index B ([3]; B: derivative with H2O2): 26; RGB index G ([3]; B: derivative with H2O2): 25; RGB index R ([3]; B: derivative with H2O2): 26; a* [3, 5]: 1; b* [3, 5]: 1; ΔE [3, 5]: 1; ΔH [3, 5]: 1
CCCCCCOc1cc(Nc2ccc(N)cc2)ccc1N [PPD derivative 5, 4-Amino-(3-hexyloxy)-4′-aminodiphenylamine] | Black | Black | Dark brown | 31 | 28 | 29 | 9 | 0 | 1 | 0 | 0 | 11 | 1 | 2 | 2 | 1.41 | 26 | 25 | 26 | 9 | RGB index B ([3]; B: derivative with H2O2): 26; RGB index G ([3]; B: derivative with H2O2): 25; RGB index R ([3]; B: derivative with H2O2): 26; a* [3, 5]: 1; b* [3, 5]: 1; ΔE [3, 5]: 1; ΔH [3, 5]: 1
CCCCCCOC(=O)c1cc(N)ccc1N [PPD derivative 15, Hexyl-2,5-diaminobenzoate] | Brown | Black | – | – | – | – | 14 | 1 | 3 | 3.1 | 2.2 | 9 | 0 | 1 | 0 | 0 | – | – | – | – | –
